Source: ChEMBL document CHEMBL3988442, “University of Dundee, Small-Polar-MMV Screening Library” (2021).

Leishmania in macrophages: 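Cell assay of Leishmania donovani living inside macrophages; the read-out is not stated. Concentration: 30 µM. Direction is inferred from retests: higher values go with stronger inhibition. Size under these conditions: about 69,000 compounds, about 1,000 of them at 50% or above in at least one test.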
Toxoplasma: 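Assay of Toxoplasma gondii numbers, read through their beta-galactosidase reporter with a colour substrate. Tested at 10 µM. Higher reads as fewer parasites (inferred from which compounds were picked for retests). About 67,000 compounds were tested under these conditions; 0.38% (about 260) showed 50% or more at least once.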

Results are given as percent effect. The controls that fix the scale are not given in the record; negative values are as filed. Compounds were drawn at random from those tested, without regard to their results.

COc1ccc(C(=O)N2CCOC(Cc3cccc(C(F)(F)F)c3)C2)o1 (configuration not stated) read Leishmania in macrophages: 17.62%; Toxoplasma: 23.55%.
CN(C)C[C@@H]1CN(C(=O)CCC2CCCC2)C[C@@H]1CO read Leishmania in macrophages: 12.74%; Toxoplasma: 18.74%.
CSCc1ccc(N2CCC(C(O)CC(C)C)CC2)nc1 (configuration not stated) read Leishmania in macrophages: 28.69%; Toxoplasma: -35.54%.
Cc1csc(Nc2cc(C3CCCCN3C)nc(C)n2)n1 (configuration not stated) read Leishmania in macrophages: 33.06%; Toxoplasma: -3.272%.
O=c1c(NCc2ccco2)c(NCC(O)CN2CCOCC2)c1=O (configuration not stated) read Leishmania in macrophages: -8.523%; Toxoplasma: -2.784%.
Cc1nn(CC(=O)NCc2cc3n(n2)CCCN(CC(C)C)C3)cc1Cl read Leishmania in macrophages: -16.47%; Toxoplasma: -10.31%.
CCc1nc(C)cc(NC(C)C(=O)Nc2cc(F)ccc2C)n1 (configuration not stated) read Leishmania in macrophages: 21.59%; Toxoplasma: 1.429%.
CN1CCN(C(=O)CC2CCN(CCc3ccccn3)CC2)CC1 read Leishmania in macrophages: 28.67%; Toxoplasma: -4.548%.
Cc1cccc(CC(=O)N2CCN(c3nccn3C)CC2)c1.Cl read Leishmania in macrophages: 14.51%; Toxoplasma: 4.336%.
COc1ccc(Oc2ccc(CNC(=O)C(C)n3cncn3)cn2)cc1 (configuration not stated) read Leishmania in macrophages: 16.24%; Toxoplasma: 3.54%.
O=C(NCCCN1CCOCC1)c1cc(-c2ccccc2)[nH]n1 read Leishmania in macrophages: 23.07%; Toxoplasma: -14.36%.
Cc1cccc(-n2cc(CNc3ncnc4c3CCNCC4)cn2)c1 read Leishmania in macrophages: 61.6%; Toxoplasma: 15.3%.
O=C(CN1CCN(c2ccc3nncn3n2)CC1)NC1CCCCC1 read Leishmania in macrophages: -6.232%; Toxoplasma: 2.694%.
COCC1Cn2nnc(-c3cnn(C)c3)c2CN1Cc1ccco1.O=C(O)C(F)(F)F (configuration not stated) read Leishmania in macrophages: -3.047%; Toxoplasma: 2.647%.
Cc1nc(C2CCCN(C(=O)c3cnn(C4CCCCC4)c3)C2)no1 (configuration not stated) read Leishmania in macrophages: 19.41%; Toxoplasma: 3.773%.
CCN1CCN(Cc2nc(CC(C)C)no2)CC1 read Leishmania in macrophages: -4.625%; Toxoplasma: -10.7%.
O=C([C@H]1CCCO1)N1CCC2(CC1)Cc1ccccc1CNC2=O read Leishmania in macrophages: 23.65%; Toxoplasma: 17.75%.
CCC(CNC(=O)c1nc(=O)[nH][nH]1)Oc1cccc(F)c1 (configuration not stated) read Leishmania in macrophages: -27.3%; Toxoplasma: 11.18%.
CN1CCN(c2ccc(NC(=O)c3ccoc3)c(C(F)(F)F)c2)CC1 read Leishmania in macrophages: 12.57%; Toxoplasma: 19.07%.
CN(CC(N)=O)Cc1cc(Cl)cc2cccnc12 read Leishmania in macrophages: 24.29%; Toxoplasma: 0.5895%.
CCn1c(C(=O)N2CCN(C(=O)NC(C)C)CC2)cc2ccccc21 read Leishmania in macrophages: -22.39%; Toxoplasma: -0.5294%.
O=C(Cc1cccnc1)N1CCCC(n2cncn2)C1 (configuration not stated) read Leishmania in macrophages: 10.64%; Toxoplasma: -41.83%.
CC(Oc1ccccc1C(F)(F)F)C(=O)NCCC(=O)N(C)C (configuration not stated) read Leishmania in macrophages: 4.165%; Toxoplasma: 3.05%.
O=C(O)C(F)(F)F.O=C(O)C(F)(F)F.[H][C@@]12CCC(=O)N(c3ccccc3)[C@]1([H])CCN2Cc1ccncc1 read Leishmania in macrophages: -14.35%; Toxoplasma: -1.068%.
O=C(O)C(F)(F)F.O=C(O)C(F)(F)F.[H][C@@]12CN(Cc3ccccn3)C[C@]1([H])C(=O)N(c1ccsc1)C2 read Leishmania in macrophages: 9.554%; Toxoplasma: -2.647%.
Cc1cc2c(=O)n(CCSc3cnn[nH]3)cnc2s1 read Leishmania in macrophages: 17.73%; Toxoplasma: -15.99%.
CC(C(=O)N1CCC(Cc2ccc(F)cc2)CC1)n1ccnc1 (configuration not stated) read Leishmania in macrophages: 37.42%; Toxoplasma: -3.471%.
COc1ccc(N2CCC(NC(=O)c3sccc3C)CC2)cc1 read Leishmania in macrophages: -9.036%; Toxoplasma: 23.09%.
CC(=O)N1CCCC1c1nccc(C)n1 (configuration not stated) read Leishmania in macrophages: 21.19%; Toxoplasma: 2.274%.
Cc1cc(NC(=O)Cn2nc(C)c(C#N)c2N)ccc1Br read Leishmania in macrophages: 21.75%; Toxoplasma: 9.043%.
O=C(O)C1(Oc2ccccc2F)CCN(C/C=C/c2ccco2)CC1 read Leishmania in macrophages: -2%; Toxoplasma: -2.493%.
N#Cc1ccc(C(=O)O)nc1/C=C/c1cccc(Cl)c1 read Leishmania in macrophages: 2.085%; Toxoplasma: 2.754%.
Cn1ccc(C2CCCCN2C(=O)c2cccc(-n3cccn3)c2)n1 (configuration not stated) read Leishmania in macrophages: 12.05%; Toxoplasma: -5.881%.
CNC(=O)COc1ccc(CNCc2ccc(F)cc2F)cc1 read Leishmania in macrophages: -1.542%; Toxoplasma: 9.421%.
COc1ccc(C(=O)N2CCCC(n3cncn3)C2)nn1 (configuration not stated) read Leishmania in macrophages: -7.892%; Toxoplasma: -10.99%.
Cc1ncsc1C(=O)N1CCCC(n2cncn2)C1 (configuration not stated) read Leishmania in macrophages: -2.543%; Toxoplasma: -12.36%.
Fc1ccc(-c2nnc(CNC3CCc4ncnn4C3)o2)cc1 (configuration not stated) read Leishmania in macrophages: 19.85%; Toxoplasma: -0.05875%.
O=C(CNc1cc(Br)ccc1Br)NC1CCS(=O)(=O)C1 (configuration not stated) read Leishmania in macrophages: 2.666%; Toxoplasma: 18.46%.
O=C(Nc1cccc(CNCc2ccccn2)c1)C1CCCC1 read Leishmania in macrophages: 24.46%; Toxoplasma: 24.3%.
CCOc1ccccc1C(=O)N1CCCC(c2nccn2CCOC)C1 (configuration not stated) read Leishmania in macrophages: -33.03%; Toxoplasma: 10.67%.
COCCSCC(=O)NCc1ccc(N(C)C)nc1 read Leishmania in macrophages: 17.19%; Toxoplasma: 4.994%.
O=C(NC[C@H]1COCc2nc3cc(F)ccc3n21)c1cccnc1 read Leishmania in macrophages: 28.15%; Toxoplasma: 6.319%.

For reference, 5 entries once more:

Compound,Leishmania in macrophages,Toxoplasma
CNC(=O)COc1ccc(CNCc2ccc(F)cc2F)cc1,-1.542,9.421
Cc1nn(CC(=O)NCc2cc3n(n2)CCCN(CC(C)C)C3)cc1Cl,-16.47,-10.31
O=C(CNc1cc(Br)ccc1Br)NC1CCS(=O)(=O)C1 (configuration not stated),2.666,18.46
O=C(O)C(F)(F)F.O=C(O)C(F)(F)F.[H][C@@]12CCC(=O)N(c3ccccc3)[C@]1([H])CCN2Cc1ccncc1,-14.35,-1.068
O=C(Cc1cccnc1)N1CCCC(n2cncn2)C1 (configuration not stated),10.64,-41.83